Measurements reported in PubChem BioAssay AID1259254 (NCATS, 2017)

- Screen: 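Finding genes that stop cells copying their DNA twice in one cycle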 (primary screen)
- Cells: human HCT116 colorectal cancer cells
- Reagents: single siRNA against human genes
- Time to read-out: 3 days
- Measured: 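Nuclei stained with Hoechst and imaged; cell-cycle phase assigned by DNA content; G2 share scaled per plate, non-targeting siRNA 0%, GMNN siRNA 100%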
- Scale: G2 robust z-score and G2 cells, % of GMNN control: higher = more G2 cells, more excess DNA replication
- Hit rule: 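Active siRNAs have a G2 robust z of 5 or more median absolute deviations over the median, which in these data means about 38% or higher of GMNN control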
This is a random part of about 59,000 reagents tested. In the full data, about 1,550 (2.6%) are marked active. 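G2 share is only a proxy for re-replication; each gene was hit by three separate siRNAs, and active genes were retested.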 Reagents against one gene are numbered here. Not all columns of the deposit are shown. The record does not give: the amount of reagent.

PTPRU (protein tyrosine phosphatase receptor type U) #1 — G2 robust z-score: 1.83; G2 cells, % of GMNN control: 15.9; Call: inactive
PTPRU (protein tyrosine phosphatase receptor type U) #2 — G2 robust z-score: -0.62; G2 cells, % of GMNN control: -1.4; Call: inactive
PTPRU (protein tyrosine phosphatase receptor type U) #3 — G2 robust z-score: -1; G2 cells, % of GMNN control: -4.08; Call: inactive
TMEM87A (transmembrane protein 87A) #1 — G2 robust z-score: 1.38; G2 cells, % of GMNN control: 12.6; Call: inactive
TMEM87A (transmembrane protein 87A) #2 — G2 robust z-score: 0.753; G2 cells, % of GMNN control: 8.27; Call: inactive
TMEM87A (transmembrane protein 87A) #3 — G2 robust z-score: 3.77; G2 cells, % of GMNN control: 29.5; Call: inactive
DEFB109B (defensin beta 109B) #1 — G2 robust z-score: -0.205; G2 cells, % of GMNN control: 1.53; Call: inactive
DEFB109B (defensin beta 109B) #2 — G2 robust z-score: 0.521; G2 cells, % of GMNN control: 6.63; Call: inactive
DEFB109B (defensin beta 109B) #3 — G2 robust z-score: 0.54; G2 cells, % of GMNN control: 6.77; Call: inactive
ESRRB (estrogen related receptor beta) #1 — G2 robust z-score: -1.15; G2 cells, % of GMNN control: -5.14; Call: inactive
ESRRB (estrogen related receptor beta) #2 — G2 robust z-score: 3.72; G2 cells, % of GMNN control: 29.2; Call: inactive
ESRRB (estrogen related receptor beta) #3 — G2 robust z-score: 0.0796; G2 cells, % of GMNN control: 3.53; Call: inactive
EBNA1BP2 (EBNA1 binding protein 2) #1 — G2 robust z-score: 2.84; G2 cells, % of GMNN control: 23; Call: inactive
EBNA1BP2 (EBNA1 binding protein 2) #2 — G2 robust z-score: 0.87; G2 cells, % of GMNN control: 9.09; Call: inactive
EBNA1BP2 (EBNA1 binding protein 2) #3 — G2 robust z-score: 1.78; G2 cells, % of GMNN control: 15.5; Call: inactive
PIK3R4 (phosphoinositide-3-kinase regulatory subunit 4) #1 — G2 robust z-score: -0.741; G2 cells, % of GMNN control: -2.25; Call: inactive
PIK3R4 (phosphoinositide-3-kinase regulatory subunit 4) #2 — G2 robust z-score: -0.917; G2 cells, % of GMNN control: -3.49; Call: inactive
PIK3R4 (phosphoinositide-3-kinase regulatory subunit 4) #3 — G2 robust z-score: -0.301; G2 cells, % of GMNN control: 0.849; Call: inactive
LILRA3 (leukocyte immunoglobulin like receptor A3) #1 — G2 robust z-score: -0.197; G2 cells, % of GMNN control: 1.58; Call: inactive
LILRA3 (leukocyte immunoglobulin like receptor A3) #2 — G2 robust z-score: -0.528; G2 cells, % of GMNN control: -0.748; Call: inactive
LILRA3 (leukocyte immunoglobulin like receptor A3) #3 — G2 robust z-score: 1.69; G2 cells, % of GMNN control: 14.9; Call: inactive
THBS2 (thrombospondin 2) #1 — G2 robust z-score: -0.667; G2 cells, % of GMNN control: -1.73; Call: inactive
THBS2 (thrombospondin 2) #2 — G2 robust z-score: 1.05; G2 cells, % of GMNN control: 10.3; Call: inactive
THBS2 (thrombospondin 2) #3 — G2 robust z-score: 1.72; G2 cells, % of GMNN control: 15.1; Call: inactive
